The odorant receptor screen of Mainland et al. (2015)
Several values for one entry are separate records, joined by “and”; a condition that tells them apart may be missing. Equal values may be shown once. This is one part of the list. Single wells; the ratio to wells without odorant was worked out here, and repeats agree poorly.

How the values were obtained:
Test in all cases: odorant receptor activation (CRE luciferase / Renilla) (fold of no-odor wells); higher = more activation
Settings in all cases: 100 µM
OR56B4 P277S clone 1224 = system: OR56B4 P277S clone 1224
OR5A1 I52V clone 1131 = system: OR5A1 I52V clone 1131
OR5A1 clone 1130 = system: OR5A1 clone 1130
OR5A1 clone 1507 = system: OR5A1 clone 1507
OR5A2 clone 1132 = system: OR5A2 clone 1132
OR5AC2 M200I clone 1490 = system: OR5AC2 M200I clone 1490
OR5AK2 M92I clone 1335 = system: OR5AK2 M92I clone 1335
OR5AK2 clone 1438 = system: OR5AK2 clone 1438
OR5AK3 clone 1336 = system: OR5AK3 clone 1336
OR5AL1 clone 1362 = system: OR5AL1 clone 1362
OR5AN1 clone 1245 = system: OR5AN1 clone 1245
OR5AP2 clone 1209 = system: OR5AP2 clone 1209
OR5AR1 clone 1207 = system: OR5AR1 clone 1207
OR5AS1 clone 1135 = system: OR5AS1 clone 1135
[1] = system: OR5AU1 L66F/I248V clone 1421
OR5AU1 clone 1344 = system: OR5AU1 clone 1344
OR5B17 clone 1220 = system: OR5B17 clone 1220
OR5B2 M200T clone 1246 = system: OR5B2 M200T clone 1246
OR5B21 I279F clone 1482 = system: OR5B21 I279F clone 1482
OR5B3 clone 1138 = system: OR5B3 clone 1138

| SMILES | odorant receptor activation (OR56B4 P277S clone 1224) | odorant receptor activation (OR5A1 I52V clone 1131) | odorant receptor activation (OR5A1 clone 1130) | odorant receptor activation (OR5A1 clone 1507) | odorant receptor activation (OR5A2 clone 1132) | odorant receptor activation (OR5AC2 M200I clone 1490) | odorant receptor activation (OR5AK2 M92I clone 1335) | odorant receptor activation (OR5AK2 clone 1438) | odorant receptor activation (OR5AK3 clone 1336) | odorant receptor activation (OR5AL1 clone 1362) | odorant receptor activation (OR5AN1 clone 1245) | odorant receptor activation (OR5AP2 clone 1209) | odorant receptor activation (OR5AR1 clone 1207) | odorant receptor activation (OR5AS1 clone 1135) | odorant receptor activation [1] | odorant receptor activation (OR5AU1 clone 1344) | odorant receptor activation (OR5B17 clone 1220) | odorant receptor activation (OR5B2 M200T clone 1246) | odorant receptor activation (OR5B21 I279F clone 1482) | odorant receptor activation (OR5B3 clone 1138) |
| --- | --- | --- | --- | --- | --- | --- | --- | --- | --- | --- | --- | --- | --- | --- | --- | --- | --- | --- | --- | --- |
| CCOc1cc(C=O)ccc1O [ethyl vanillin] | 1.5 and 1.24 | 1.72 and 1.26 | 1.29 and 1.14 | 1.31 and 2.72 and 1.2 | 1.92 and 1.18 | 1.68 and 1.95 and 1.03 | 0.519 and 1.15 | 0.985 and 1.44 | 0.952 and 0.96 | 1.03 and 1.28 | 1.02 and 1.04 | 1.19 and 1.32 | 1.39 and 1.33 | 2.29 and 1.24 | 0.924 and 1.46 | 0.698 and 0.892 | 1.35 and 0.977 | 0.953 and 1.06 | 1.16 and 2.26 and 1.18 | 1.95 and 1.2 |
| CS [methanethiol] | 1.01 | 0.811 | 0.89 | 1.06 | 0.858 | 0.903 | 0.966 | 1.09 | 0.866 | 1.28 | 0.78 | 0.996 | 0.977 | 0.942 | 0.929 | 0.993 | 0.86 | 0.858 | 0.998 | 0.817 |
| CCC(C)=O [2-butanone] | 1.05 | 0.757 | 1.38 | 1.04 | 1.23 | 1.06 | 0.869 | 1.05 | 0.976 | 1.42 | 1.26 | 0.814 | 0.867 | 1.25 | 1.27 | 0.913 | 1.37 | 2.04 | 0.888 | 1.26 |
| CCCCOC(C)=O [butyl acetate] | 1.24 | 1 | 0.848 | 1.01 | 0.996 | 1.05 | 0.63 | 0.195 | 0.94 | 0.196 | 0.714 | 1.02 | 1.02 | 1.24 | 0.429 | 0.689 | 0.978 | 1.08 | 0.855 | 1.11 |
